# Source: the supplement of paper PMC8728848
# This is one part of the list.
# B1: Thrombomodulin Lectin (Mus musculus) (protein)
# chain: LSALAKLQPTGSQCVEHECFALFQGPATFLDASQACQRLQGHLMTVRSSVAADVISLLLSQSSMDLGPWIGLQLPQGCDDPVHLGPLRGFQWVTGDNHTSYSRWARPNDQTAPLCGPLCVTVSTATEAAPGEPAWEEKPCETETQGFLCEFYFTASCRVDPIPVREDTKEEEGAGEPPVSPTPGSPTGPPSARPVLDEPRVPITQNPCPPLKECPPCAAPDLEGGPSVFIFPPKIKDVLMISLSPMVTCVVVDVSEDDPDVQISWFVNNVEVHTAQTQTHREDYNSTLRVVSALPIQHQDWMSGKAFACAVNNRALPSPIEKTISKPRGPVRAPQVYVLPPPAEEMTKKEFSLTCMITGFLPAEIAVDWTSNGRTEQNYKNTATVLDSDGSYFMYSKLRVQKSTWERGSLFACSVVHEGLHNHLTTKTISRSLGK
# Legend:
# Assay in all cases: glycan array binding signal (z-score within array); higher = stronger binding
# Details in all cases: glycan notation: IUPAC condensed, linker removed
# Fuc(a1-2)Gal = biological target: Fuc(a1-2)Gal
# In short: (§1)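 Glycan array data were curated from 3228 arrays in the Consortium for Functional Glycomics database and kept only where the protein sequence was available. Glycan names were converted to IUPAC-condensed notation, and columns mapping to the same glycan were averaged. The binding signal is a within-array Z-score, averaged across arrays of the same protein sequence at different concentrations or buffers and across linkers. Negative Z-scores can be read as non-binding.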
# Fuc(a1-2)Gal(b1-3)GalNAc = biological target: Fuc(a1-2)Gal(b1-3)GalNAc
# In short: as §1
# [1] = biological target: Fuc(a1-2)Gal(b1-3)GalNAc(a1-3)[Fuc(a1-2)]Gal(b1-4)Glc
# In short: as §1
# [2] = biological target: Fuc(a1-2)Gal(b1-3)GalNAc(a1-3)[Fuc(a1-2)]Gal(b1-4)GlcNAc
# In short: as §1
# [3] = biological target: Fuc(a1-2)Gal(b1-3)GalNAc(b1-3)Gal
# In short: as §1
# [4] = biological target: Fuc(a1-2)Gal(b1-3)GalNAc(b1-3)Gal(a1-4)Gal(b1-4)Glc
# In short: as §1
# [5] = biological target: Fuc(a1-2)Gal(b1-3)GalNAc(b1-4)[Neu5Ac(a2-3)]Gal(b1-4)Glc
# In short: as §1
# Fuc(a1-2)Gal(b1-3)GlcNAc = biological target: Fuc(a1-2)Gal(b1-3)GlcNAc
# In short: as §1
# [6] = biological target: Fuc(a1-2)Gal(b1-3)GlcNAc(b1-2)Man(a1-3)[Fuc(a1-2)Gal(b1-3)GlcNAc(b1-2)Man(a1-6)]Man(b1-4)GlcNAc(b1-4)GlcNAc
# In short: as §1
# [7] = biological target: Fuc(a1-2)Gal(b1-3)GlcNAc(b1-2)Man(a1-3)[Fuc(a1-2)Gal(b1-3)GlcNAc(b1-2)Man(a1-6)]Man(b1-4)GlcNAc(b1-4)[Fuc(a1-6)]GlcNAc
# In short: as §1
# [8] = biological target: Fuc(a1-2)Gal(b1-3)GlcNAc(b1-3)Gal(b1-4)Glc
# In short: as §1
# [9] = biological target: Fuc(a1-2)Gal(b1-3)GlcNAc(b1-3)GalNAc
# In short: as §1
# [10] = biological target: Fuc(a1-2)Gal(b1-3)GlcNAc(b1-3)[Fuc(a1-2)Gal(b1-3)GlcNAc(b1-6)]GalNAc
# In short: as §1
# [11] = biological target: Fuc(a1-2)Gal(b1-3)GlcNAc(b1-3)[Gal(b1-4)GlcNAc(b1-6)]Gal(b1-4)Glc
# In short: as §1
# [12] = biological target: Fuc(a1-2)Gal(b1-3)GlcNAc(b1-3)[Neu5Ac(a2-6)Gal(b1-4)GlcNAc(b1-6)]Gal(b1-4)Glc
# In short: as §1
# [13] = biological target: Fuc(a1-2)Gal(b1-3)GlcNAc6S
# In short: as §1
# [14] = biological target: Fuc(a1-2)Gal(b1-3)[Fuc(a1-4)]GlcNAc
# In short: as §1
# [15] = biological target: Fuc(a1-2)Gal(b1-3)[Fuc(a1-4)]GlcNAc(b1-2)Man(a1-3)[Fuc(a1-2)Gal(b1-3)[Fuc(a1-4)]GlcNAc(b1-2)Man(a1-3)]Man(b1-4)GlcNAc(b1-4)GlcNAc
# In short: as §1
# [16] = biological target: Fuc(a1-2)Gal(b1-3)[Fuc(a1-4)]GlcNAc(b1-2)Man(a1-3)[Fuc(a1-2)Gal(b1-3)[Fuc(a1-4)]GlcNAc(b1-2)Man(a1-6)]Man(b1-4)GlcNAc(b1-4)[Fuc(a1-6)]GlcNAc(b1-4)[Fuc(a1-6)]GlcNAc
# In short: as §1
# [17] = biological target: Fuc(a1-2)Gal(b1-3)[Fuc(a1-4)]GlcNAc(b1-3)[Fuc(a1-3)[Gal(b1-4)]GlcNAc(b1-6)]Gal(b1-4)Glc
# In short: as §1
# [18] = biological target: Fuc(a1-2)Gal(b1-3)[Fuc(a1-4)]GlcNAc(b1-3)[Gal(b1-4)GlcNAc(b1-6)]Gal(b1-4)Glc
# In short: as §1
# Fuc(a1-2)Gal(b1-4)Glc = biological target: Fuc(a1-2)Gal(b1-4)Glc
# In short: as §1
# Fuc(a1-2)Gal(b1-4)Glc6S = biological target: Fuc(a1-2)Gal(b1-4)Glc6S
# In short: as §1
# Fuc(a1-2)Gal(b1-4)GlcNAc = biological target: Fuc(a1-2)Gal(b1-4)GlcNAc
# In short: as §1
# [19] = biological target: Fuc(a1-2)Gal(b1-4)GlcNAc(b1-2)Man
# In short: as §1
# [20] = biological target: Fuc(a1-2)Gal(b1-4)GlcNAc(b1-2)Man(a1-3)[Fuc(a1-2)Gal(b1-4)GlcNAc(b1-2)Man(a1-6)]Man(b1-4)GlcNAc(b1-4)GlcNAc
# In short: as §1
# [21] = biological target: Fuc(a1-2)Gal(b1-4)GlcNAc(b1-2)Man(a1-3)[Fuc(a1-2)Gal(b1-4)GlcNAc(b1-2)Man(a1-6)]Man(b1-4)GlcNAc(b1-4)[Fuc(a1-6)]GlcNAc
# In short: as §1
# [22] = biological target: Fuc(a1-2)Gal(b1-4)GlcNAc(b1-2)[Fuc(a1-2)Gal(b1-4)GlcNAc(b1-4)]Man(a1-3)[Fuc(a1-2)Gal(b1-4)GlcNAc(b1-2)Man(a1-6)]Man(b1-4)GlcNAc(b1-4)GlcNAc
# In short: as §1
# [23] = biological target: Fuc(a1-2)Gal(b1-4)GlcNAc(b1-3)Gal(b1-4)GlcNAc
# In short: as §1
# [24] = biological target: Fuc(a1-2)Gal(b1-4)GlcNAc(b1-3)Gal(b1-4)GlcNAc(b1-2)Man(a1-3)[Fuc(a1-2)Gal(b1-4)GlcNAc(b1-3)Gal(b1-4)GlcNAc(b1-2)Man(a1-6)]Man(b1-4)GlcNAc(b1-4)GlcNAc
# In short: as §1
# [25] = biological target: Fuc(a1-2)Gal(b1-4)GlcNAc(b1-3)Gal(b1-4)GlcNAc(b1-3)Gal(b1-4)GlcNAc
# In short: as §1
# [26] = biological target: Fuc(a1-2)Gal(b1-4)GlcNAc(b1-3)GalNAc
# In short: as §1
# [27] = biological target: Fuc(a1-2)Gal(b1-4)GlcNAc(b1-3)[Fuc(a1-2)Gal(b1-4)GlcNAc(b1-6)]GalNAc
# In short: as §1
# [28] = biological target: Fuc(a1-2)Gal(b1-4)GlcNAc(b1-3)[Fuc(a1-3)[Gal(b1-4)]GlcNAc(b1-6)]Gal(b1-4)Glc
# In short: as §1
# [29] = biological target: Fuc(a1-2)Gal(b1-4)GlcNAc(b1-6)GalNAc
# In short: as §1
# [30] = biological target: Fuc(a1-2)Gal(b1-4)GlcNAc6S
# In short: as §1
# [31] = biological target: Fuc(a1-2)Gal(b1-4)[Fuc(a1-3)]GlcNAc
# In short: as §1
# [32] = biological target: Fuc(a1-2)Gal(b1-4)[Fuc(a1-3)]GlcNAc(b1-2)Man(a1-3)[Fuc(a1-2)Gal(b1-4)[Fuc(a1-3)]GlcNAc(b1-2)Man(a1-6)]Man(b1-4)GlcNAc(b1-4)[Fuc(a1-6)]GlcNAc
# In short: as §1
# [33] = biological target: Fuc(a1-2)Gal(b1-4)[Fuc(a1-3)]GlcNAc(b1-2)[Fuc(a1-2)Gal(b1-4)[Fuc(a1-3)]GlcNAc(b1-4)]Man(a1-3)[Fuc(a1-2)Gal(b1-4)[Fuc(a1-3)]GlcNAc(b1-2)Man(a1-6)]Man(b1-4)GlcNAc(b1-4)GlcNAc
# In short: as §1
# [34] = biological target: Fuc(a1-2)Gal(b1-4)[Fuc(a1-3)]GlcNAc(b1-3)Gal(b1-4)[Fuc(a1-3)]GlcNAc
# In short: as §1
# [35] = biological target: Fuc(a1-2)Gal(b1-4)[Fuc(a1-3)]GlcNAc(b1-3)Gal(b1-4)[Fuc(a1-3)]GlcNAc(b1-3)Gal(b1-4)[Fuc(a1-3)]GlcNAc
# In short: as §1
# [36] = biological target: Fuc(a1-2)Gal(b1-4)[Fuc(a1-3)]GlcNAc(b1-3)GalNAc
# In short: as §1
# [37] = biological target: Fuc(a1-2)Gal(b1-4)[Fuc(a1-3)]GlcNAc(b1-3)[Neu5Ac(a2-6)Gal(b1-4)GlcNAc(b1-6)]Gal(b1-4)Glc
# In short: as §1
# [38] = biological target: Fuc(a1-2)Gal3S(b1-4)GlcNAc
# In short: as §1
# [39] = biological target: Fuc(a1-2)Gal6S(b1-3)GlcNAc
# In short: as §1
binder,measurement,setting,value
B1,glycan array binding signal (z-score),Fuc(a1-2)Gal,-0.471
same,glycan array binding signal (z-score),Fuc(a1-2)Gal(b1-3)GalNAc,-0.016
same,glycan array binding signal (z-score),[1],-1.7
same,glycan array binding signal (z-score),[2],0.628
same,glycan array binding signal (z-score),[3],-0.06
same,glycan array binding signal (z-score),[4],-1.04
same,glycan array binding signal (z-score),[5],-0.189
same,glycan array binding signal (z-score),Fuc(a1-2)Gal(b1-3)GlcNAc,0.159
same,glycan array binding signal (z-score),[6],0.062
same,glycan array binding signal (z-score),[7],-0.107
same,glycan array binding signal (z-score),[8],-0.113
same,glycan array binding signal (z-score),[9],0.4
same,glycan array binding signal (z-score),[10],0.65
same,glycan array binding signal (z-score),[11],-0.227
same,glycan array binding signal (z-score),[12],0.887
same,glycan array binding signal (z-score),[13],0.171
same,glycan array binding signal (z-score),[14],-1.07
same,glycan array binding signal (z-score),[15],0.196
same,glycan array binding signal (z-score),[16],-1.04
same,glycan array binding signal (z-score),[17],-0.635
same,glycan array binding signal (z-score),[18],0.776
same,glycan array binding signal (z-score),Fuc(a1-2)Gal(b1-4)Glc,-0.298
same,glycan array binding signal (z-score),Fuc(a1-2)Gal(b1-4)Glc6S,-0.846
same,glycan array binding signal (z-score),Fuc(a1-2)Gal(b1-4)GlcNAc,-0.545
same,glycan array binding signal (z-score),[19],-0.657
same,glycan array binding signal (z-score),[20],0.621
same,glycan array binding signal (z-score),[21],0.32
same,glycan array binding signal (z-score),[22],-0.58
same,glycan array binding signal (z-score),[23],-0.707
same,glycan array binding signal (z-score),[24],0.733
same,glycan array binding signal (z-score),[25],-0.139
same,glycan array binding signal (z-score),[26],0.078
same,glycan array binding signal (z-score),[27],0.697
same,glycan array binding signal (z-score),[28],0.106
same,glycan array binding signal (z-score),[29],2.73
same,glycan array binding signal (z-score),[30],-1.08
same,glycan array binding signal (z-score),[31],-0.553
same,glycan array binding signal (z-score),[32],-0.576
same,glycan array binding signal (z-score),[33],0.775
same,glycan array binding signal (z-score),[34],0.215
same,glycan array binding signal (z-score),[35],1.04
same,glycan array binding signal (z-score),[36],0.324
same,glycan array binding signal (z-score),[37],-0.573
same,glycan array binding signal (z-score),[38],-1.15
same,glycan array binding signal (z-score),[39],0.422

# Two entries from above in a different format.
binder | measurement | setting | value
B1 | glycan array binding signal (z-score) | [24] | 0.733
same | glycan array binding signal (z-score) | [33] | 0.775
